Among the data in publication PMC5007465 are binding values, retold here.

Sequences and labels used below:
B1: GFP-CtIP-ΔC2 (domain or fragment, UniProt Q99708 1-812)
chain: MNISGSSCGSPNSADTSSDFKDLWTKLKECHDREVQGLQVKVTKLKQERILDAQRLEEFFTKNQQLREQQKVLHETIKVLEDRLRAGLCDRCAVTEEHMRKKQQEFENIRQQNLKLITELMNERNTLQEENKKLSEQLQQKIENDQQHQAAELECEEDVIPDSPITAFSFSGVNRLRRKENPHVRYIEQTHTKLEHSVCANEMRKVSKSSTHPQHNPNENEILVADTYDQSQSPMAKAHGTSSYTPDKSSFNLATVVAETLGLGVQEESETQGPMSPLGDELYHCLEGNHKKQPFEESTRNTEDSLRFSDSTSKTPPQEELPTRVSSPVFGATSSIKSGLDLNTSLSPSLLQPGKKKHLKTLPFSNTCISRLEKTRSKSEDSALFTHHSLGSEVNKIIIQSSNKQILINKNISESLGEQNRTEYGKDSNTDKHLEPLKSLGGRTSKRKKTEEESEHEVSCPQASFDKENAFPFPMDNQFSMNGDCVMDKPLDLSDRFSAIQRQEKSQGSETSKNKFRQVTLYEALKTIPKGFSSSRKASDGNCTLPKDSPGEPCSQECIILQPLNKCSPDNKPSLQIKEENAVFKIPLRPRESLETENVLDDIKSAGSHEPIKIQTRSDHGGCELASVLQLNPCRTGKIKSLQNNQDVSFENIQWSIDPGADLSQYKMDVTVIDTKDGSQSKLGGETVDMDCTLVSETVLLKMKKQEQKGEKSSNEERKMNDSLEDMFDRTTHEEYESCLADSFSQAADEEEELSTATKKLHTHGDKQDKVKQKAFVEPYFKGDERETSLQNFPHIEVVRKKEERRKLLGHT
B2: GFP-CtIP-ΔC3 (domain or fragment, UniProt Q99708 1-863)
chain: MNISGSSCGSPNSADTSSDFKDLWTKLKECHDREVQGLQVKVTKLKQERILDAQRLEEFFTKNQQLREQQKVLHETIKVLEDRLRAGLCDRCAVTEEHMRKKQQEFENIRQQNLKLITELMNERNTLQEENKKLSEQLQQKIENDQQHQAAELECEEDVIPDSPITAFSFSGVNRLRRKENPHVRYIEQTHTKLEHSVCANEMRKVSKSSTHPQHNPNENEILVADTYDQSQSPMAKAHGTSSYTPDKSSFNLATVVAETLGLGVQEESETQGPMSPLGDELYHCLEGNHKKQPFEESTRNTEDSLRFSDSTSKTPPQEELPTRVSSPVFGATSSIKSGLDLNTSLSPSLLQPGKKKHLKTLPFSNTCISRLEKTRSKSEDSALFTHHSLGSEVNKIIIQSSNKQILINKNISESLGEQNRTEYGKDSNTDKHLEPLKSLGGRTSKRKKTEEESEHEVSCPQASFDKENAFPFPMDNQFSMNGDCVMDKPLDLSDRFSAIQRQEKSQGSETSKNKFRQVTLYEALKTIPKGFSSSRKASDGNCTLPKDSPGEPCSQECIILQPLNKCSPDNKPSLQIKEENAVFKIPLRPRESLETENVLDDIKSAGSHEPIKIQTRSDHGGCELASVLQLNPCRTGKIKSLQNNQDVSFENIQWSIDPGADLSQYKMDVTVIDTKDGSQSKLGGETVDMDCTLVSETVLLKMKKQEQKGEKSSNEERKMNDSLEDMFDRTTHEEYESCLADSFSQAADEEEELSTATKKLHTHGDKQDKVKQKAFVEPYFKGDERETSLQNFPHIEVVRKKEERRKLLGHTCKECEIYYADMPAEEREKKLASCSRHRFRYIPPNTPENFWEVGFPSTQTCM
B3: GFP-CtIP-ΔC1 (domain or fragment, UniProt Q99708 1-789)
chain: MNISGSSCGSPNSADTSSDFKDLWTKLKECHDREVQGLQVKVTKLKQERILDAQRLEEFFTKNQQLREQQKVLHETIKVLEDRLRAGLCDRCAVTEEHMRKKQQEFENIRQQNLKLITELMNERNTLQEENKKLSEQLQQKIENDQQHQAAELECEEDVIPDSPITAFSFSGVNRLRRKENPHVRYIEQTHTKLEHSVCANEMRKVSKSSTHPQHNPNENEILVADTYDQSQSPMAKAHGTSSYTPDKSSFNLATVVAETLGLGVQEESETQGPMSPLGDELYHCLEGNHKKQPFEESTRNTEDSLRFSDSTSKTPPQEELPTRVSSPVFGATSSIKSGLDLNTSLSPSLLQPGKKKHLKTLPFSNTCISRLEKTRSKSEDSALFTHHSLGSEVNKIIIQSSNKQILINKNISESLGEQNRTEYGKDSNTDKHLEPLKSLGGRTSKRKKTEEESEHEVSCPQASFDKENAFPFPMDNQFSMNGDCVMDKPLDLSDRFSAIQRQEKSQGSETSKNKFRQVTLYEALKTIPKGFSSSRKASDGNCTLPKDSPGEPCSQECIILQPLNKCSPDNKPSLQIKEENAVFKIPLRPRESLETENVLDDIKSAGSHEPIKIQTRSDHGGCELASVLQLNPCRTGKIKSLQNNQDVSFENIQWSIDPGADLSQYKMDVTVIDTKDGSQSKLGGETVDMDCTLVSETVLLKMKKQEQKGEKSSNEERKMNDSLEDMFDRTTHEEYESCLADSFSQAADEEEELSTATKKLHTHGDKQDKVKQKAFVEPYFKGDERETS

Results are given in words; binding and its absence hold for the method and conditions named. In cells and extracts the contact can be indirect. Some binding calls cover weakened binding; strength is not graded here. Tags and fused reporters may be left off the sequences shown.

This assay deals with T1, MBP-KLHL15-His (human) (UniProt Q96M94).
T1 sequence: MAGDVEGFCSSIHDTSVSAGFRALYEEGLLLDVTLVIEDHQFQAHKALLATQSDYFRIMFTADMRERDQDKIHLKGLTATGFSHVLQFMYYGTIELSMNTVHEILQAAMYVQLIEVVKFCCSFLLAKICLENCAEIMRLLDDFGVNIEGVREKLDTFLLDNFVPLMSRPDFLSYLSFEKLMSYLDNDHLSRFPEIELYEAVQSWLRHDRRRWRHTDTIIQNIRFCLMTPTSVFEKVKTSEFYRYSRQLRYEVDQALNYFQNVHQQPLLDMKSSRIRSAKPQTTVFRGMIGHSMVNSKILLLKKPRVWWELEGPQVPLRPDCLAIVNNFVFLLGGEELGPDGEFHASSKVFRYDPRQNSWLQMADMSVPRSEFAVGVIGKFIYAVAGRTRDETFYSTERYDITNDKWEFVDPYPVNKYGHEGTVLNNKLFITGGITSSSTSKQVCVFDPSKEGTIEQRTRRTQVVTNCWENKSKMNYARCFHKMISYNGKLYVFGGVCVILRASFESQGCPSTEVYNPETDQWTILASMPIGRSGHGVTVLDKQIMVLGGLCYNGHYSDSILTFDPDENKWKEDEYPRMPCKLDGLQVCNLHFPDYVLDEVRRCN
Briefly: pull-down; MBP-KLHL15-His on amylose beads, incubated with 1 mg HEK293T lysate overexpressing GFP-CtIP constructs, 1 h at 4 °C, washes with NTEN300 (300 mM NaCl); immunoblot; only the target purified. A general note: A western blot detects proteins with antibodies after separation by electrophoresis.
As for B1, the binding entry was “no binding”.
For B2, the binding entry was “binds”.
As to B3, the binding result is given as “no binding”.
